Data as given in PubChem BioAssay AID2685 (National Center for Advancing Translational Sciences (NCATS), 2010).
About 2,100 (0.66%) of roughly 320,000 compounds were called active. The inconclusive results got no clear call from the source; some entries with a clear call stand among them for comparison. The call rests on the fitted dose curve; in most records, active means well fitted inhibition curve with a large enough effect in the signal ratio, with a control signal flat (not every such curve was filed as active); inconclusive means small, poorly fitted or top-dose-only effect, or effect the other way, or a change in a side signal; inactive means flat fitted curve, though single readings scatter; the % refers to the signal ratio. Potencies beside an inconclusive call are fits to weak or partial responses and may not hold up. Where a SMILES comes first, the peptide text is derived from it. The star is where a group is joined. OBn = c1ccc(CO*)cc1

Experiment: qHTS Assay for Lipid Storage Modulators in Drosophila S3 Cells
Details: BODIPY lipid droplet fluorescence, 18-24 h, cells fed with added oleic acid; lipid storage change, negative = inhibition: at 46.1 µM (top of the series) unless noted
Summary of the method: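 Drosophila S3 cells loaded with oleic acid (400 uM, as added) and compounds at several concentrations; lipid droplets imaged by 488-nm laser-scanning cytometry, 500–530 nm intensity and object ratio to cell channel. Percent activity normalized to 20 uM Triacsin C.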
On the % scale 0 is the no-effect control and ±100 the full control effect; potency means the concentration at half of the fitted maximal effect.

Row | Compound | lipid storage change, negative = inhibition | outcome | Potency
1 | CCOC(=O)C1CCN(C(=O)CCc2c(C)nc3cc(-c4ccccc4)nn3c2C)CC1 | inconclusive: -11.9% | – | –
2 | Cc1sc(NC(=O)c2cccc([N+](=O)[O-])c2)c(C(N)=O)c1-c1ccc(C(C)(C)C)cc1 | inconclusive: 52% | – | –
3 | Cc1cccc(NC(=O)C2CCN(S(=O)(=O)c3cccs3)CC2)n1 | – | inactive [at 46.1 µM] | –
4 | O=C(NCCc1ccco1)C(=O)NCC1OCCCN1S(=O)(=O)c1cc(F)ccc1F (centres undefined) | inconclusive: 21.6% | – | –
5 | Cc1ccc(NC(=O)Cn2c(=O)n(CCC(=O)NC3CCN(Cc4ccccc4)CC3)c(=O)c3ccccc32)cc1 | inactive: 0.946% | – | –
6 | Cc1cc2ncn(CC3CC3(Cl)Cl)c2cc1C (centres undefined) | inconclusive: 7.97% [at 9.22 µM] | – | –
7 | CCCCCN(C(=O)CCC(=O)OCC(=O)N(C)C1CCCCC1)c1c(N)n(CCCC)c(=O)[nH]c1=O | inconclusive | – | –
8 | CCOC(=O)C1=C(O)/C(=C/c2ccc(-c3ccccc3C(=O)O)o2)SC1=Nc1ccc(C)cc1 | – | – | inconclusive: 29.1 µM [falling, single point]
9 | Cc1nnc(N2CCN(Cc3ccccc3)CC2)[nH]c1=O | inconclusive: -31% | – | –
10 | COc1cccc(C(=O)NCC2CCCN2S(=O)(=O)c2ccccc2)c1 (centres undefined) | – | – | inconclusive: 2.59 µM [activator, partial curve]
11 | C[n+]1c2n(c3ccccc31)N=C(c1ccc(-c3ccccc3)cc1)CS2 | – | – | inconclusive: 29.1 µM [cytotoxic, single point]
12 | CCOc1ccccc1NS(=O)(=O)c1ccc2[nH]c(=O)ccc2c1 | – | – | inconclusive: 25.9 µM [falling, single point]
13 | COc1ccc(CCNS(=O)(=O)c2cccc([N+](=O)[O-])c2)cc1OC | – | – | inconclusive: 3.66 µM [activator, partial curve, poor fit]
14 | c1ccc2c(c1)oc1c(NCCCN3CCOCC3)ncnc12 | inconclusive: 15.9% | – | –
15 | Cc1nc2ccccc2cc1OCc1ccc(F)cc1 | inconclusive: -70.6% | – | –
16 | Cc1ccc2c(c1)N(C(=O)CCC(=O)NCc1cccnc1)CCO2 | inconclusive: 1.78% | – | –
17 | Cc1ccc(C2(C)NC(=O)N(CC(=O)Nc3ccccc3N3CCCC3)C2=O)cc1 (centres undefined) | inconclusive | – | –
18 | COc1ccc(-c2cccc(NC(=O)c3ccco3)c2)nn1 | – | – | inconclusive: 23.1 µM [activator, single point]
19 | c1ccc(-c2csc3ncnc(NCc4ccccn4)c23)cc1 | inactive: -14.3% | – | –
20 | Cc1ccc(S(=O)(=O)N=Nc2c(O)[nH]c3ccccc23)cc1 | – | – | inconclusive: 1.46 µM [falling, full curve]
21 | COc1ccc(Cl)cc1-n1c(=S)sc2c(=O)[nH]c(SCC(=O)NCCC(C)C)nc21 | inconclusive: -122% | – | –
22 | Cc1ccc(-c2csc3nc(SCC(=O)Nc4ccc(Cl)c(C(=O)O)c4)[nH]c(=O)c23)cc1 | inconclusive: 8.47% | – | –
23 | Cc1ccc(S(=O)(=O)c2cc3ccccc3oc2=Nc2ccc3c(c2)OCCO3)cc1 | – | – | inconclusive: 0.13 µM [activator, full curve, poor fit]
24 | COC(=O)c1ccccc1NC(=O)CCCN1C(=O)C(c2ccccc2)Oc2cccnc21 (centres undefined) | inconclusive: 35.4% | – | –
25 | COc1cccc(CN(C)Cc2nc3cc(C(F)(F)F)ccc3c(=O)[nH]2)c1 | inconclusive: 30.3% | – | –

Some of the entries so far, as a markdown table.

| Row | Compound | lipid storage change, negative = inhibition | outcome | Potency |
| --- | --- | --- | --- | --- |
| 2 | Cc1sc(NC(=O)c2cccc([N+](=O)[O-])c2)c(C(N)=O)c1-c1ccc(C(C)(C)C)cc1 | inconclusive: 52% | – | – |
| 4 | O=C(NCCc1ccco1)C(=O)NCC1OCCCN1S(=O)(=O)c1cc(F)ccc1F (centres undefined) | inconclusive: 21.6% | – | – |
| 5 | Cc1ccc(NC(=O)Cn2c(=O)n(CCC(=O)NC3CCN(Cc4ccccc4)CC3)c(=O)c3ccccc32)cc1 | inactive: 0.946% | – | – |
| 6 | Cc1cc2ncn(CC3CC3(Cl)Cl)c2cc1C (centres undefined) | inconclusive: 7.97% [at 9.22 µM] | – | – |
| 7 | CCCCCN(C(=O)CCC(=O)OCC(=O)N(C)C1CCCCC1)c1c(N)n(CCCC)c(=O)[nH]c1=O | inconclusive | – | – |
| 8 | CCOC(=O)C1=C(O)/C(=C/c2ccc(-c3ccccc3C(=O)O)o2)SC1=Nc1ccc(C)cc1 | – | – | inconclusive: 29.1 µM [falling, single point] |
| 10 | COc1cccc(C(=O)NCC2CCCN2S(=O)(=O)c2ccccc2)c1 (centres undefined) | – | – | inconclusive: 2.59 µM [activator, partial curve] |
| 11 | C[n+]1c2n(c3ccccc31)N=C(c1ccc(-c3ccccc3)cc1)CS2 | – | – | inconclusive: 29.1 µM [cytotoxic, single point] |
| 12 | CCOc1ccccc1NS(=O)(=O)c1ccc2[nH]c(=O)ccc2c1 | – | – | inconclusive: 25.9 µM [falling, single point] |
| 13 | COc1ccc(CCNS(=O)(=O)c2cccc([N+](=O)[O-])c2)cc1OC | – | – | inconclusive: 3.66 µM [activator, partial curve, poor fit] |
| 15 | Cc1nc2ccccc2cc1OCc1ccc(F)cc1 | inconclusive: -70.6% | – | – |
| 16 | Cc1ccc2c(c1)N(C(=O)CCC(=O)NCc1cccnc1)CCO2 | inconclusive: 1.78% | – | – |
| 17 | Cc1ccc(C2(C)NC(=O)N(CC(=O)Nc3ccccc3N3CCCC3)C2=O)cc1 (centres undefined) | inconclusive | – | – |
| 18 | COc1ccc(-c2cccc(NC(=O)c3ccco3)c2)nn1 | – | – | inconclusive: 23.1 µM [activator, single point] |
| 19 | c1ccc(-c2csc3ncnc(NCc4ccccn4)c23)cc1 | inactive: -14.3% | – | – |
| 20 | Cc1ccc(S(=O)(=O)N=Nc2c(O)[nH]c3ccccc23)cc1 | – | – | inconclusive: 1.46 µM [falling, full curve] |
| 23 | Cc1ccc(S(=O)(=O)c2cc3ccccc3oc2=Nc2ccc3c(c2)OCCO3)cc1 | – | – | inconclusive: 0.13 µM [activator, full curve, poor fit] |
| 24 | COC(=O)c1ccccc1NC(=O)CCCN1C(=O)C(c2ccccc2)Oc2cccnc21 (centres undefined) | inconclusive: 35.4% | – | – |
| 25 | COc1cccc(CN(C)Cc2nc3cc(C(F)(F)F)ccc3c(=O)[nH]2)c1 | inconclusive: 30.3% | – | – |

Following part

Row | Compound | lipid storage change, negative = inhibition | outcome | Potency
26 | CSc1ncccc1C(=O)NCCc1ccc(S(N)(=O)=O)cc1 | – | – | inconclusive: 29.1 µM [falling, single point]
27 | O=C(NCc1ccccc1Br)C1CCCO1 (centres undefined) | – | – | inconclusive: 0.116 µM [falling, full curve, poor fit]
28 | CCOC(=O)C1=C(Cn2cnc3ccccc32)NC(=O)NC1c1cc(C)ccc1C (centres undefined) | – | – | inconclusive: 29.1 µM [falling, partial curve, poor fit]
29 | N#C/C(C(N)=O)=c1/ccc2c(c1)N1C3=C(CCCC3)CC3CCCCC31N=2 (centres undefined) | – | – | inconclusive: 0.082 µM [activator, full curve, poor fit]
30 | O=[N+]([O-])c1cc2c(cc1Br)CCN2 | inactive: 21.7% | – | –
31 | COc1cccc(CNC(=O)N[C@@H](C)C(=O)O)c1 | inactive: -15.6% | – | –
32 | Cc1n[nH]c(C)c1CCNCc1ccc(OCC(O)CN2CCCCC2)cc1 (centres undefined) | – | – | inconclusive: 2.59 µM [falling, partial curve]
33 | Cc1ccc(S(=O)(=O)c2nc(NN(C)C)sc2Cl)cc1 | inconclusive: 0.732% | – | –
34 | COc1cccc(N2CCN(C3CCCC(C)C3)CC2)c1 (centres undefined) | – | – | inconclusive: 32.6 µM [cytotoxic, single point]
35 | CCN(CC)CCNC(=O)c1ccc2c(c1)NC(=O)c1ccccc1S2 | – | – | inconclusive: 29.1 µM [rising, single point]
36 | O=C(COC(=O)c1cc[n+]([O-])cc1)Nc1cc([N+](=O)[O-])ccc1Cl | inconclusive | – | –
37 | CCOC(=O)C1CCCN(CC(=O)/C=C2/N(C)c3ccccc3C2(C)C)C1 (centres undefined) | inconclusive: 2.8% | – | –
38 | Fc1ccc(NC(=S)NNc2ncc(C(F)(F)F)cc2Cl)c(F)c1 | – | – | inconclusive: 25.1 µM [cytotoxic, single point]
39 | COc1cc(CN2CCN(c3cccc(C)c3C)CC2)cc([N+](=O)[O-])c1O | – | – | inconclusive: 0.13 µM [falling, full curve, poor fit]
40 | Cc1n[nH]c(=O)c2c(NC(=O)CSc3nnc(C4CC4)n3C)oc(C)c12 | inconclusive: 37.9% [activator] [at 0.0737 µM] | – | –
41 | O=C(CCC(=O)Nc1ccccc1Cl)NN=C1CCCC1 | – | – | inconclusive: 6.51 µM [falling, single point]
42 | CCOc1ccc(NC(=O)CN(C)C(=O)CCSc2ccc(F)cc2)cc1OCC | inconclusive: 17.5% | – | –
43 | CC(=O)Nc1ccc(CN2CCC(n3nccc3NC(=O)CCc3ccccc3)CC2)cc1 | – | – | inconclusive: 4.61 µM [falling, single point]
44 | O=C1N=C(N2CCCC2C(=O)O)S/C1=C\c1ccco1 (centres undefined) | inconclusive: -67.4% | – | –
45 | COc1cccc(N2CCN(C(=O)CCCCCn3c(=S)[nH]c4cc5c(cc4c3=O)OCO5)CC2)c1 | inconclusive: -2.4% | – | –
46 | N#Cc1c(NC(=O)CSc2ncnc3c2cnn3-c2ccccc2Cl)sc2c1CCCC2 | – | – | inconclusive: 29.1 µM [activator, single point]
47 | Cc1cnnn1-c1cccc([N+](=O)[O-])c1 | inconclusive: -23.2% | – | –
48 | CCCCN(CC)C(=O)Cc1c(C(=O)O)[nH]c2ccc(Cl)cc12 | – | – | inconclusive: 18.4 µM [falling, single point]
49 | Cc1nn(C)c(C(=O)NNC(=S)NCC(C)C)c1Cl | inconclusive: -5.44% | – | –
50 | C/C(=N/NC(=O)CNC(=O)COc1ccccc1)c1ccc(Cl)cc1 | – | – | inconclusive: 18.4 µM [falling, single point]

Row | Compound | lipid storage change, negative = inhibition | outcome | Potency
51 | CCOC(=O)CC(=O)CSc1nnc2sc3ccccc3n12 | – | – | inconclusive: 4.61 µM [activator, partial curve]
52 | COc1ccc(C(=O)Nc2cc(Cl)ccc2N2CCOCC2)cc1S(=O)(=O)N1CCOCC1 | inconclusive | – | –
53 | Cc1c(Cl)cccc1NC(=O)COC(=O)CN1C(=O)NC(C)(C)C1=O | inconclusive: 30% | – | –
54 | CCC(=O)Nc1ccc(C(=O)COC(=O)Cc2ccsc2)cc1 | inconclusive: 3.34% | – | –
55 | CCCCn1ccc(=O)c2c(C(F)(F)F)nccc21 | inconclusive: 6.67% | – | –
56 | COc1cccc(CC2(CO)CCN(Cc3cnc(N4CCOCC4)s3)CC2)c1 | inconclusive: 6.43% | – | –
57 | Cc1cc(C)n(-c2cccc(CN3CCC(CO)(Cc4ccccc4)CC3)c2)n1 | inconclusive: 18.1% | – | –
58 | CCN1/C(=C/c2cccc[n+]2C)Sc2ccc(OC)cc21 | – | – | inconclusive: 2.31 µM [rising, partial curve]
59 | Cc1cc(=O)[nH]c(Nc2cccc(Br)c2)n1 | – | – | inconclusive: 0.58 µM [falling, partial curve, poor fit]
60 | CC1Cc2ccccc2N1CC(=O)NC(=O)NC(C)(C)C (centres undefined) | inconclusive: 3.23% | – | –
61 | N=c1c(C(=O)NCc2ccco2)cc2c(=O)n3ccccc3nc2n1Cc1ccc(Cl)cc1 | – | – | inconclusive: 2.59 µM [activator, partial curve]
62 | CC(C)(C)C1(C)OC(C(=O)NC2CCCCC2)C(C(=O)NC2CCCCC2)O1 (centres undefined) | inconclusive: 6.71% | – | –
63 | COc1ccc(C(=O)N2CCC(C(=O)O)CC2)cc1 | inconclusive: -174% | – | –
64 | COC(=O)[C@H](Cc1ccccc1)NC(=O)[C@@H](N)CC(=O)OCc1ccccc1 (H-Asp(OBn)-Phe-OMe) | inconclusive: -36.6% | – | –
65 | COc1cccc(CNc2nnnn2C)c1 | inconclusive: -16.8% | – | –
66 | Cc1c(C)c2c(OCC(=O)N3CCC(C(N)=O)CC3)cc3c(c2oc1=O)CCC(C)(C)O3 | inconclusive: -15.4% | – | –
67 | CCCOCCOC(=O)c1[nH]c2c(c1C)C(=O)CC(c1cc(OC)ccc1OC)C2 (centres undefined) | – | – | inconclusive: 20.6 µM [falling, single point]
68 | C[C@H]1CCC(=O)N([C@H](CN=[N+]=[N-])Cc2ccccc2)CC1 | inconclusive: -29.6% | – | –
69 | COc1cc(OC)c(C(=O)Nc2cccnc2)cc1OC | – | – | inconclusive: 23.1 µM [falling, single point]
70 | CCOc1ccc(CCNC(=O)c2cccc(C#N)c2)cc1OCC | inconclusive: 44.9% | – | –
71 | Cc1cnc(CN(C)C(=O)CC2C(=O)NCCN2Cc2cccc(F)c2F)[nH]1 (centres undefined) | inconclusive: -18% | – | –
72 | CCn1c(SCC(=O)Nc2ccccc2Br)nnc1-c1cnccn1 | – | – | inconclusive: 11.6 µM [activator, partial curve]
73 | CCNC(=O)N1CCCC(C(=O)c2ccc(OC)c(OC)c2)C1 (centres undefined) | inconclusive: -13.2% | – | –
74 | Cc1nnc(SCc2ccc3c(c2)OCO3)s1 | – | – | inconclusive: 0.0041 µM [activator, full curve, poor fit]
